Measurements as given in publication PMC4947123.
Results are given in words; binding and its absence hold for the method and conditions named. Binding seen in cells or lysates may run through a third protein. Some results given as binding are weak or reduced against the parent protein; the word gives no strength.

The chains behind the UniProt entries cited, without tags or fusion partners. Where a name states a change or a piece, a line headed by the entry shows the natural chain unless it says otherwise.
UniProt P56959: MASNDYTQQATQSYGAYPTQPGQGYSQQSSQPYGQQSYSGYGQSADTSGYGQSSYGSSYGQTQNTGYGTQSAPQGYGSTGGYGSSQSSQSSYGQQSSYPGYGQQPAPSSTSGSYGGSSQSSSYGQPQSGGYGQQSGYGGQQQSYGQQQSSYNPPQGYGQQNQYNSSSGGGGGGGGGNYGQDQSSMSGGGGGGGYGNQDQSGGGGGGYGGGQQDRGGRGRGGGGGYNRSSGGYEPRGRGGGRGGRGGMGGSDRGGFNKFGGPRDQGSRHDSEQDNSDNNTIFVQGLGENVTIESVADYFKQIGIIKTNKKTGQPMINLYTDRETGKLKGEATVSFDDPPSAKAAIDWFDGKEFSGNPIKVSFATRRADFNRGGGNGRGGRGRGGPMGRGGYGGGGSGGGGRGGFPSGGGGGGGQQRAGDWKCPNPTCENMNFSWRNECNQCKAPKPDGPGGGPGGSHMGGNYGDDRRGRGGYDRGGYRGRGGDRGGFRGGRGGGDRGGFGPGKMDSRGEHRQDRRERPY
UniProt Q6PHQ9: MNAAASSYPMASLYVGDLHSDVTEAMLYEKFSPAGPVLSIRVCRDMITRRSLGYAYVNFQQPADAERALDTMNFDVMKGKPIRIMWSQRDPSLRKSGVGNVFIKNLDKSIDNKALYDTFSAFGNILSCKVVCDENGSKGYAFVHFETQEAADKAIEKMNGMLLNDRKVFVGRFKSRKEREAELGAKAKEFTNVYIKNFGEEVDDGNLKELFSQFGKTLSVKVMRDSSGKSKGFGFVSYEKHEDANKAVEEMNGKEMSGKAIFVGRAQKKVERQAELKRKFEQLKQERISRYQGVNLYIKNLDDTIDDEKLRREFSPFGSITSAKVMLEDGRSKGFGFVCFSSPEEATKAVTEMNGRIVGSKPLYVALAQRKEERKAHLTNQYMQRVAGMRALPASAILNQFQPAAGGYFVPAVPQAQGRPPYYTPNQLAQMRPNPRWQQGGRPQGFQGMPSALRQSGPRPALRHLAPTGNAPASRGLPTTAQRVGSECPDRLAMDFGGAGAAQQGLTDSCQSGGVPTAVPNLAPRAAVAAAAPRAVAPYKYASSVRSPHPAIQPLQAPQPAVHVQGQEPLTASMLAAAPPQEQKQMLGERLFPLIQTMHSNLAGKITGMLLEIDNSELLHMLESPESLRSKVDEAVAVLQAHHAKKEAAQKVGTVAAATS
UniProt O70133: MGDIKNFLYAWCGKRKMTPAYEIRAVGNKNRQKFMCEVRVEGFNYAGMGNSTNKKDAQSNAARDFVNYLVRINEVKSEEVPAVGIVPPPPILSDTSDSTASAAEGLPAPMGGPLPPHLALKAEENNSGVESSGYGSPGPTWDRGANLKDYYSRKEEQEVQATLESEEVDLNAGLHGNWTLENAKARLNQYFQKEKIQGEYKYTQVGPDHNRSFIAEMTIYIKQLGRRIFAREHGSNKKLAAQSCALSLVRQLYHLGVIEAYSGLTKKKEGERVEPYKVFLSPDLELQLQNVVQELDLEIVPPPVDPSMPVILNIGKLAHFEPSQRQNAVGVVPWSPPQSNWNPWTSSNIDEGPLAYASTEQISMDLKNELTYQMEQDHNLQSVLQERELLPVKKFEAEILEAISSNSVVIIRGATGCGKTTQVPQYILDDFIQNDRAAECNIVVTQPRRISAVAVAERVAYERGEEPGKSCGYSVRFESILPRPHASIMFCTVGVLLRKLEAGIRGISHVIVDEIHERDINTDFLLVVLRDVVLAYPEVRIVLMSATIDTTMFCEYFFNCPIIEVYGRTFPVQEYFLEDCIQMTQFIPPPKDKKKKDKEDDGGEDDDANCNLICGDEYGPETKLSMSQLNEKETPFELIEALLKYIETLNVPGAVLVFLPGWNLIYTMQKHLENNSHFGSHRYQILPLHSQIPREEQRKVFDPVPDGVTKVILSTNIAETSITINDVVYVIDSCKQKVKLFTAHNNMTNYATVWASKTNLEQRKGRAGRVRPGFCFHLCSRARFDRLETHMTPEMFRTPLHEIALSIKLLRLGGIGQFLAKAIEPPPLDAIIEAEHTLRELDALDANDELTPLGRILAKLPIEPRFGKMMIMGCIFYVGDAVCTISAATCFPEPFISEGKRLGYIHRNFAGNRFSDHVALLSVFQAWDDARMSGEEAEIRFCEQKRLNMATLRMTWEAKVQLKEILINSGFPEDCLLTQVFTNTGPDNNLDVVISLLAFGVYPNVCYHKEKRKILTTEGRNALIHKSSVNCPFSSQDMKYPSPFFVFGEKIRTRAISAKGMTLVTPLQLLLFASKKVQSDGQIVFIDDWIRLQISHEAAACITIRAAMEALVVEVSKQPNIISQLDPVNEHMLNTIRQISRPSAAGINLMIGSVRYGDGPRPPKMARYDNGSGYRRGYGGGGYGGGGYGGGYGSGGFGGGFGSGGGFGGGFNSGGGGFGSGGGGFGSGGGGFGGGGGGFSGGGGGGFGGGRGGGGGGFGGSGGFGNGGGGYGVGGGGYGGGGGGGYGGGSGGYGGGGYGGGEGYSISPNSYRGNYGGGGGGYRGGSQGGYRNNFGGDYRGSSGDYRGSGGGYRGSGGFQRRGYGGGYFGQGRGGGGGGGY
UniProt Q9EPU0: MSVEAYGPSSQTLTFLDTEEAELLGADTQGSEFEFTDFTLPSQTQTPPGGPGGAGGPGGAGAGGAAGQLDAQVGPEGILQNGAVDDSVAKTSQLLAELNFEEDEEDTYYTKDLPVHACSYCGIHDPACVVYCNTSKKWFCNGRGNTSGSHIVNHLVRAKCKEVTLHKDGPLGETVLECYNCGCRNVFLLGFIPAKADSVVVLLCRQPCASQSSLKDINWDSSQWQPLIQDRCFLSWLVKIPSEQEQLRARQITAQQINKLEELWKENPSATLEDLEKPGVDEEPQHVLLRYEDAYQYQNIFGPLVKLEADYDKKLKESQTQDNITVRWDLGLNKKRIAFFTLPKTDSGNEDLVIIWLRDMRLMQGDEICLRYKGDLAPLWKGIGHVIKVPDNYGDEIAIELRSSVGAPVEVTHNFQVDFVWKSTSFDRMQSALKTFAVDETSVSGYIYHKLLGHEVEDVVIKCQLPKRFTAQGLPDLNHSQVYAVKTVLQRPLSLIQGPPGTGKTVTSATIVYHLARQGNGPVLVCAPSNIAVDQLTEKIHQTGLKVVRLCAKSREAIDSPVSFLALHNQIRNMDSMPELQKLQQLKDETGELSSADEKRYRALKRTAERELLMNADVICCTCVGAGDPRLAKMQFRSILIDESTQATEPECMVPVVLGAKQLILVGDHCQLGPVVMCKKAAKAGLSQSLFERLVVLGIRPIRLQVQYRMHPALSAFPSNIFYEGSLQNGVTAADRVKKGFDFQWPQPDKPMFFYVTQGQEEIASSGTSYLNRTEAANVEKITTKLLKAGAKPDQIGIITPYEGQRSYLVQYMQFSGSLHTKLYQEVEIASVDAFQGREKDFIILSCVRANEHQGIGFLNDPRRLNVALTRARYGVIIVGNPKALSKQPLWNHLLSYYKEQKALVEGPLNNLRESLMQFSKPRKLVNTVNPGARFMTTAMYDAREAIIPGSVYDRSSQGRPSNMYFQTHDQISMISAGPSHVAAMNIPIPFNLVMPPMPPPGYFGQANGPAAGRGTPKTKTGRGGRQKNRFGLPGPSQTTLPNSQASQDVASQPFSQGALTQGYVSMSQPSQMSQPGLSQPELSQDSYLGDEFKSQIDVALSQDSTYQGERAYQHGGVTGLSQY
UniProt Q61701: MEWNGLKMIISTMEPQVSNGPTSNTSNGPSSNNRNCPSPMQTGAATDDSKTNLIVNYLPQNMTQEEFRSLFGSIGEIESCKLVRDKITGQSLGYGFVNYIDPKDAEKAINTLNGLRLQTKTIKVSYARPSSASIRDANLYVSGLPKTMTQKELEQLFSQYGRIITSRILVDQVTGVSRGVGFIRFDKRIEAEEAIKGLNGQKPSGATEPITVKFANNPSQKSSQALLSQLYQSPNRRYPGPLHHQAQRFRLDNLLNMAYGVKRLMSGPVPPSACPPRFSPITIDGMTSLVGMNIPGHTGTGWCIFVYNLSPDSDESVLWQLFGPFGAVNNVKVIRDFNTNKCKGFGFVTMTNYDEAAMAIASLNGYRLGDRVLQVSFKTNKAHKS

Assays:
Test in all cases: co-IP; endogenous proteins, N2A lysate (20 mM Tris-HCl pH 7.5, 150 mM NaCl, 1 % NP-40, 10 % glycerol), IP with antibodies against Atxn2, Fus or Tdp-43, protein A or G magnetic beads, immunoblot; IgG control
[1] = biological target: T1, endogenous Atxn2 (mouse (endogenous in N2A)) (UniProt O70305)
T1 sequence: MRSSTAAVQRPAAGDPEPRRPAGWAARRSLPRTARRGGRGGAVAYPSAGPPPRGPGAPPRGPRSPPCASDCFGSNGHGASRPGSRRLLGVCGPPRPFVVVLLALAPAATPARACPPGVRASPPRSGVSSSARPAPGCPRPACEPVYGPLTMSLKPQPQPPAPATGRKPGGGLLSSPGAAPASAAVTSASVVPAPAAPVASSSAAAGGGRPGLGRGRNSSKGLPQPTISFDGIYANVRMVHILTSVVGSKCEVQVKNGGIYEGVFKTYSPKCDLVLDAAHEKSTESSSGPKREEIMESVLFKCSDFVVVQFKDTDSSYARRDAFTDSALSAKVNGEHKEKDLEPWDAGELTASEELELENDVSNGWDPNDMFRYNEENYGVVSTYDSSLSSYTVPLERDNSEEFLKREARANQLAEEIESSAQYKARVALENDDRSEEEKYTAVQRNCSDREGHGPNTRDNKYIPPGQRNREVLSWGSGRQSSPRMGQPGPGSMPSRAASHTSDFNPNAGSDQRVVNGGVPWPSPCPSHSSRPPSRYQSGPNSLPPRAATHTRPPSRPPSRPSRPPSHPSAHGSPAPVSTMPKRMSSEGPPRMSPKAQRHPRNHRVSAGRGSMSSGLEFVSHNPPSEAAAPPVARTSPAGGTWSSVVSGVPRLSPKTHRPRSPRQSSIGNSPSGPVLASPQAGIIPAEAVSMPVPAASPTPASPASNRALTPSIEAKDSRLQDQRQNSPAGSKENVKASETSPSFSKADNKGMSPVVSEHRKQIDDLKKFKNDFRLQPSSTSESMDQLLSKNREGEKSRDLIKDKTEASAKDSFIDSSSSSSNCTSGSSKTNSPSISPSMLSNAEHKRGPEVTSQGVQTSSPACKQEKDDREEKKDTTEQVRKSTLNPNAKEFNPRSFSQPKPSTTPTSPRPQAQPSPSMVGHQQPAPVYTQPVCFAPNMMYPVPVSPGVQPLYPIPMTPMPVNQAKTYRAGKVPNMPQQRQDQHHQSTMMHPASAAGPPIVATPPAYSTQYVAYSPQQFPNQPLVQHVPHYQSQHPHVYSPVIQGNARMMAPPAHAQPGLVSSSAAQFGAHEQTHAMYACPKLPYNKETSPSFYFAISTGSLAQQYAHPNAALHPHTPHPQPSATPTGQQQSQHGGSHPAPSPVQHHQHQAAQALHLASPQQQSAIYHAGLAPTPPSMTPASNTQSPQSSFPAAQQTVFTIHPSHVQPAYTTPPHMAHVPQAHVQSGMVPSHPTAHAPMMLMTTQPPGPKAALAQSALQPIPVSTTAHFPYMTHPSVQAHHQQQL

[2] = biological target: endogenous Tdp-43 (mouse (endogenous in N2A)) (UniProt Q921F2)
[3] = biological target: endogenous Fus (mouse (endogenous in N2A, NSC-34, primary mouse cortical neurons)) (UniProt P56959)

Measured: binding

Pabpc4 (from UniProt Q6PHQ9 1-660)
binds: all assays above

Dhx9 (from UniProt O70133 1-1380)
binds: all assays above

Upf1 (from UniProt Q9EPU0 1-1124)
binds: all assays above

HuD (Elavl4) (from UniProt Q61701 1-385)
binds: all assays above
